## Library screening results

Data taken from ChEMBL document CHEMBL3988442, “University of Dundee, Small-Polar-MMV Screening Library” (2021).

Results are given as percent effect.
The record does not define 0% and 100%; most values in the screen are far below 50% and negative numbers occur (in some assays of this library far below -100).
The compounds are a random part of those screened.
Two or more numbers in one place are separate tests of the same structure; such repeats can differ widely.

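Viability assay of Plasmodium falciparum sporozoites; the read-out is not stated. The concentration is filed as 10 mM, unlikely as a test dose, so the dose is not known. Higher reads as lower viability (inferred: compounds with an IC50 in retests scored well above the rest). Strong results were mostly tested again. Of about 34,000 compounds tested this way, about 280 (0.84%) reached 50% or more in at least one test.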

{"compound": "COc1cc(C(=O)NCC2CC2)nc2c(C)cc(F)cc12", "effect": 6.136}
{"compound": "[H][C@@]12C[C@@H](Oc3cccnc3)CN1CCN(C(=O)c1ccoc1C)C2", "effect": -8.292}
{"compound": "NC(=O)CN1CCCN(C(=O)Cc2ccc(F)cc2)CC1", "effect": 5.389}
{"compound": "Cc1cc(C)n(CCC(=O)N2CCC(c3nc(C(C)C)no3)CC2)n1", "effect": -5.016}
{"compound": "COCCC(=O)N1CCCC1c1nccc(C)n1", "stereo": "centres undefined", "effect": 3.754}
{"compound": "COCC(O)CN1CCC(=O)N(CC2CC2)Cc2ccccc21", "stereo": "centres undefined", "effect": -55.86}
{"compound": "O=C(N1CCCC1)N1CCOCC2(CCN(Cc3cccs3)C2)C1.O=C(O)C(F)(F)F", "stereo": "centres undefined", "effect": 5.902}
{"compound": "Cc1nccn1[C@@H]1CC[C@@H](NC(=O)CCCn2cccn2)[C@H]1O", "effect": 12.87}
{"compound": "Cc1nccn1-c1cccc(C2CCCN2)n1.Cl", "stereo": "centres undefined", "effect": 9.17}
{"compound": "Cc1noc(C)c1C(=O)N1CCC2(CCc3ccccc3C(=O)N2)C1", "stereo": "centres undefined", "effect": 1.683}
{"compound": "CC(=O)NCCc1ccc(C(=O)N2CCCC2c2cnn(C)c2)cc1", "stereo": "centres undefined", "effect": 8.72}
{"compound": "Cc1nc(CNC(=O)N(CCCO)C2CCc3ccccc32)oc1C", "stereo": "centres undefined", "effect": -1.581}
{"compound": "Cc1ccc(CN2CCCC23CCN(S(=O)(=O)c2ccccc2)C3)o1", "stereo": "centres undefined", "effect": -0.6857}
{"compound": "CC(=O)N1CCC2(CC1)CN(C(C)=O)CC21CCNC1=O", "stereo": "centres undefined", "effect": 1.882}
{"compound": "CC(=O)Nc1nc(CN2CCOC(Cn3nc(C)cc3C)C2)cs1", "stereo": "centres undefined", "effect": 1.735}
{"compound": "O=C1CC2(CCN(c3nncs3)C2)CN1c1cncnc1", "stereo": "centres undefined", "effect": -4.825}
{"compound": "O=C(O)C(F)(F)F.[H][C@@]12CCCO[C@]1([H])[C@H](NC(=O)c1nccn1C)CN2Cc1ccoc1", "effect": 4.904}
{"compound": "COCCNc1nc2c(c(NCc3ccncc3)n1)CCNCC2", "effect": -2}
{"compound": "Br.O=C(O)c1csc(NCCc2ccccc2)n1", "effect": -9.137}
{"compound": "COc1cccc(S(=O)(=O)NC(=O)COC2CCCC2)c1", "effect": 4.252}
{"compound": "N#Cc1ccnc(N2CCN(Cc3cccc(F)c3)CC2)c1", "effect": -6.69}
{"compound": "O=C(O)C(F)(F)F.[H][C@@]12CN(Cc3nccs3)CCC[C@]1(C(=O)OCC)CN(C(C)=O)C2", "effect": -5.922}
{"compound": "Cc1nc(Nc2nnc(C)s2)cc(C2CCCN2C(C)C)n1", "stereo": "centres undefined", "effect": 7.472}
{"compound": "CN(C)C(=O)c1cccc(CN2CCOC(Cn3cncn3)C2)c1", "stereo": "centres undefined", "effect": 6.311}
{"compound": "COc1ccc(C2CCCN2C(=O)NCCn2ccnc2)cc1OC", "stereo": "centres undefined", "effect": 3.68}
{"compound": "CC(=O)N(Cc1ncc(C)o1)C1CCN(CCNC2CCCCC2)C1", "stereo": "centres undefined", "effect": -8.074}
{"compound": "CCNC(=O)CCC(=O)Nc1ccc2nn(C(C)C)cc2c1", "effect": -18.65}
{"compound": "CC(CN1CCOCC1)NC(=O)NCc1ccoc1", "stereo": "centres undefined", "effect": -9.804}
{"compound": "COc1cccc(CC(=O)N2CCC(c3ccn4nccc4n3)CC2)c1", "effect": 2.029}
{"compound": "NC(=O)c1ccc(CN2C(=O)C3(CCNCC3)Nc3ccccc32)cc1", "effect": "-33.79 & -38.79 & -29.57"}
{"compound": "O=C(O)c1cc(-c2cccnc2)cc(S(=O)(=O)N2CCCCCC2)c1", "effect": 6.133}
{"compound": "CN1CCCc2cc(-c3cncn3CCNC3CCS(=O)(=O)C3)ccc21.Cl", "stereo": "centres undefined", "effect": -0.06394}
{"compound": "O=C(O)C(F)(F)F.[H][C@@]12C[C@@H](c3nc(C)no3)CN(CC3CCCC3)[C@]1([H])CCO2", "effect": -16.5}
{"compound": "CSc1cccc(CN(C)C(=O)Cn2ncc(N(C)C)cc2=O)c1", "effect": -14}
{"compound": "CN1C[C@]2(CC[C@@H](C(=O)O)CC2)Oc2ccccc2C1=O", "effect": 7.156}
{"compound": "Cc1noc(C)c1CNC(=O)N1CCC(CO)CC1", "effect": -13.38}
{"compound": "CCOCC(O)CNc1cncc(Br)c1", "stereo": "centres undefined", "effect": -7.88}
{"compound": "CC1CCCCN1C(=O)c1ccc2c(c1)OCCCO2", "stereo": "centres undefined", "effect": "21.23 & 29.49 & 20.5"}
{"compound": "Cc1ccc(-c2ncc(C(=O)NCCNC(=O)C3CC3)s2)c(C)c1", "effect": 1.867}
{"compound": "Cc1cnn(CC2CCCN2CC(=O)NCc2ccccn2)c1", "stereo": "centres undefined", "effect": 0.2686}
{"compound": "CC(=O)c1cccc(S(=O)(=O)N2CSCC2C(=O)NCC(F)(F)F)c1", "stereo": "centres undefined", "effect": 0.716}
{"compound": "CC(C(=O)N1CCOCC1)n1nc(-c2cccs2)cc(N)c1=O", "stereo": "centres undefined", "effect": -6.596}
{"compound": "Cn1ccc(C(=O)NCc2cccc(NC(=O)C3CCC3)c2)cc1=O", "effect": -1.244}
{"compound": "Cc1cc(N2CCN(CC(=O)N(C)C)CC2)nc(-c2ccncc2)n1", "effect": -5.524}
{"compound": "CCn1ncc2c1C(COCC1CC1)CN(S(=O)(=O)N(C)C)C2.O=C(O)C(F)(F)F", "stereo": "centres undefined", "effect": -2.713}
{"compound": "Cc1ccc(CN(CCCn2ccnc2)Cc2ccccc2O)s1.O=C(O)CC(O)(CC(=O)O)C(=O)O", "effect": 8.084}
{"compound": "CN(C)S(=O)(=O)N1CCN(c2ccnc(N3CCCC3)n2)CC1", "effect": 5.301}
{"compound": "CC(NC(=O)N1CCC(n2cncn2)CC1)c1ccc(F)cc1", "stereo": "centres undefined", "effect": 7.843}
{"compound": "Cc1nc(C)c(C(=O)NCCOc2ccc(C(F)(F)F)cn2)o1", "effect": -20.67}
{"compound": "CN1CCCC(Cc2cncc(Br)c2)CC1", "stereo": "centres undefined", "effect": 0.8294}
{"compound": "O=C(O)C(F)(F)F.[H][C@@]12CN(C(=O)Cc3cccs3)C[C@]1([H])OCCN2CC1CCCC1", "effect": 4.771}
{"compound": "Cc1cc(NC(=O)CN2CCc3cncnc3C2)no1", "effect": 13.42}
{"compound": "CCc1nc(CC)n(CC(=O)N(CC)CC)n1", "effect": -4.72}
{"compound": "O=C(Nc1ccccn1)C1CCN(C(=O)COc2ccccc2F)C1", "stereo": "centres undefined", "effect": -5.087}
{"compound": "Cc1nc(CN(C)C2CCN(CCCOc3ccc(F)cc3)C2)no1", "stereo": "centres undefined", "effect": 5.064}
{"compound": "NC(=O)c1cc(C2CCCN(C(=O)CCc3cccs3)C2)n[nH]1", "stereo": "centres undefined", "effect": 0.9206}
{"compound": "Cc1cc(CN2CCN(CC(O)c3cccc(F)c3)CC2)no1", "stereo": "centres undefined", "effect": -0.3615}

4 of the entries, repeated:

Compound	effect
O=C(O)C(F)(F)F.[H][C@@]12CCCO[C@]1([H])[C@H](NC(=O)c1nccn1C)CN2Cc1ccoc1	4.904
Cc1nc(Nc2nnc(C)s2)cc(C2CCCN2C(C)C)n1 (centres undefined)	7.472
Cc1ccc(CN(CCCn2ccnc2)Cc2ccccc2O)s1.O=C(O)CC(O)(CC(=O)O)C(=O)O	8.084
[H][C@@]12C[C@@H](Oc3cccnc3)CN1CCN(C(=O)c1ccoc1C)C2	-8.292